Hit rate of the full screen: of about 340,000 compounds, about 6,200 (1.8%) were called active. The inconclusive results got no clear call from the source; some entries with a clear call stand among them for comparison. The call rests on the fitted dose curve; in most records, active means well fitted activation curve with a large enough effect; inconclusive means small, poorly fitted or top-dose-only effect; inactive means no such curve, though single readings can be large or run the other way. Potencies beside an inconclusive call are fits to weak or partial responses and may not hold up.
assay: A quantitative high throughput screen for small molecules that induce DNA re-replication in SW480 colon adenocarcinoma cells.; further: nearly all actives have a fitted effect of over 55% in size; on re-replication activation: % of control where 0% means no effect; conditions: Hoechst DNA content imaging, 48 h; re-replication activation: at 46.1 µM (top of the series) unless noted
In short: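 Image-based DNA-content assay: after two days of treatment, nuclei were labelled with the DNA dye Hoechst and imaged, and hits were compounds raising the count of nuclei showing high fluorescence intensity.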
Potency means the concentration at half of the fitted maximal effect.

Row | Compound | re-replication activation | Potency
1 | COc1ccc(CN2CCN(Cc3cccc(Oc4ccccc4)c3)CC2)c(OC)c1OC | inactive: 8.81% | 
2 | Nc1ncnc2c1ncn2C1OC(CO)C(O)C1N (stereo not given) |  | inconclusive: 0.731 µM [activator, partial curve, poor fit]
3 | O=C(CSc1ccc(-c2ccc3c(c2)OCO3)nn1)Nc1nccs1 | inactive: 0.784% | 
4 | CN(Cc1ccc(F)cc1)C(=O)c1ccc(NS(=O)(=O)c2ccccc2)cc1 | inactive: -0.373% | 
5 | Cc1ccc(NC(=O)CN(C)C(=O)c2cccnc2Nc2cccc(C(F)(F)F)c2)cc1 |  | inconclusive: 29.1 µM [activator, single point]
6 | CN(Cc1ccco1)C(=O)CSc1nc(C2CC2)n(-c2ccccc2)n1 | inactive: -0.819% | 
7 | CCn1cc(CN2CCCC(C(=O)c3ccc(-c4ccccc4)cc3)C2)cn1 (stereo not given) |  | inconclusive: 23.1 µM [activator, single point]
8 | CCc1c(C)nc2cc(-c3ccccc3)[nH]n2c1=O | inactive: -5.95% | 
9 | COc1ccc(CNC(=O)CN2CCN(C(c3ccccc3)c3ccccc3)CC2)cc1 |  | inconclusive: 4.11 µM [activator, single point]
10 | Cc1sc2ncn(CC(=O)NCc3ccco3)c(=O)c2c1-c1ccc(F)cc1 |  | inconclusive: 29.1 µM [activator, partial curve, poor fit]
11 | COc1ccc(/C=C2\SC(=N)N(c3nccs3)C2=O)cc1OC |  | active: 11.6 µM
12 | Cc1ccc(NC(=O)C2CC(Cl)=CCC2C(=O)O)c([N+](=O)[O-])c1 (stereo not given) |  | inconclusive: 0.0046 µM [activator, full curve, poor fit]
13 | COc1cc2[nH]c(=O)n(Cc3ccc(C(=O)NCC4CCCO4)cc3)c(=O)c2cc1OC (stereo not given) |  | inconclusive: 32.6 µM [activator, partial curve, poor fit]
14 | O=C(CNC(=O)Cc1cccc2ccccc12)NCc1ccc(F)cc1 | inactive: -14.2% | 
15 | O=C(N/N=C/C1C(c2ccccc2)C1(Cl)Cl)c1cccc(Cl)c1 (stereo not given) | inactive: -11.9% | 
16 | CC(=O)Oc1ccc(C(=O)Nc2cccc(C(=O)c3cccc(NC(=O)c4ccc(OC(C)=O)cc4)c3)c2)cc1 |  | inconclusive: 29.1 µM [activator, single point]
17 | CCC1=Nc2cc(C(=O)NCCN3CCOCC3)ccc2Sc2ccc(C)cc21 |  | inconclusive: 0.0073 µM [activator, full curve, poor fit]
18 | Cc1cc(C)n(-c2nc(NCCCN(C)C)c3c4c(sc3n2)CCCC4)n1 |  | inconclusive: 7.31 µM [activator, partial curve, poor fit]
19 | COc1ccccc1NC1=C(Cl)C(=O)N(C2CCCCC2)C1=O |  | inconclusive: 20.6 µM [activator, partial curve, poor fit]
20 | Cc1cc(S(=O)(=O)NCC(c2ccc(F)cc2)N2CCN(C)CC2)ccc1F (stereo not given) |  | inconclusive: 4.11 µM [activator, partial curve, poor fit]
21 | C[C@H]1CN=C(N(C)C)N1CCC1CCCCC1 | inactive: 6.94% | 
22 | O=C(CCS(=O)(=O)c1ccccc1)N(CCCN1CCOCC1)c1nc2ccccc2s1 |  | inconclusive: 4.11 µM [activator, full curve, poor fit]
23 | COc1ccc(/C=C2\SC(=S)N(C(C)C(=O)NC3C=CS(=O)(=O)C3)C2=O)cc1 (stereo not given) |  | inconclusive: 18.4 µM [activator, partial curve, poor fit]
24 | COc1ccc(CN2CCN(CC(=O)Nc3ccccc3C(=O)NC3CC3)CC2)cc1F | inactive: -5.6% | 

Row | Compound | re-replication activation | Potency
25 | CCCn1c(=N)n(CC(=O)c2ccc(Cl)c(Cl)c2)c2ccccc21 |  | inconclusive: 18.4 µM [activator, single point]
26 | Cc1ccc(-c2nnc(NC(=O)CCS(=O)(=O)c3ccccc3)o2)c(C)c1 | inactive: 3.86% | 
27 | Cc1ccc(C)c(NC2=NS(=O)(=O)c3ccccc32)c1 | inactive: -1.45% | 
28 | COc1c(Br)cc(Br)cc1/C=N/n1c(C)nnc1C |  | inconclusive: 29.1 µM [activator, single point]
29 | Cc1cccc(NC(=O)COc2cccc3c2CCN(C)C3=O)c1 |  | inconclusive: 6.51 µM [activator, single point]
30 | CCCC(=O)NCCSC |  | inconclusive: 0.891 µM [activator, full curve, poor fit]
31 | COCC(=O)Nc1cc([N+](=O)[O-])ccc1OC |  | inconclusive: 6.51 µM [activator, partial curve, poor fit]
32 | Fc1ccc(-c2cnn3c(-c4cccs4)ccnc23)cc1 |  | inconclusive: 29.1 µM [activator, partial curve, poor fit]
33 | CCCCCCC1CC(C)(C(=O)CNc2nncs2)OC1=O (stereo not given) | inactive: -1.8% | 
34 | NC(N)=N/N=C/c1ccc(OCc2ccccc2Cl)cc1 |  | active: 13 µM
35 | CC(=O)Nc1ccc(N(C(=O)CNC(=O)c2ccco2)C(C(=O)NCc2ccco2)c2ccccc2F)cc1 (stereo not given) | inactive: 4.33% | 
36 | COc1cc(NC(=O)c2cc3ccccc3cc2OC)ccc1NC(=O)c1cccs1 |  | inconclusive: 29.1 µM [activator, single point]
37 | COc1cc(CNc2ccc(N3CCOCC3)cc2)cc(Br)c1OC |  | inconclusive: 4.11 µM [activator, single point]
38 | Cc1ccc(C(=O)COc2cc(C)nc3nncn23)cc1 | inactive: -17% | 
39 | O=C(NC1CCSc2ccccc21)c1ccc(F)c(S(=O)(=O)N2CCOCC2)c1 (stereo not given) |  | inconclusive: 20.6 µM [activator, single point]
40 | O=C(CCCN1C(=O)/C(=C\c2cccc(Br)c2)SC1=S)Nc1cccnc1 | inactive: 25.8% | 
41 | CC(C)c1nnc(NC(=O)c2ccc3c(c2)OCO3)s1 | inactive: -25.9% | 
42 | CCc1nn(C(C)C(=O)Nc2cccc(C)c2C)c(=O)c2cc3occc3n12 (stereo not given) | inactive: 1.76% | 
43 | CCc1ccc(C(=O)COC(=O)C2CCN(c3ccc(C(F)(F)F)cn3)CC2)cc1 | inactive: -1.11% | 
44 | Cc1c(C(=O)N2CCc3ccccc3C2)oc2ccccc12 | inactive: 6.77% | 
45 | C[C@@H]1CN([C@@H](C)CO)C(=O)c2cc(NC(=O)Nc3ccc4c(c3)OCO4)ccc2O[C@H]1CN(C)S(=O)(=O)c1ccc(F)cc1 |  | inconclusive: 32.6 µM [activator, partial curve, poor fit]
46 | COc1ccc(CCNC(=O)CSc2ccccn2)cc1OC |  | inconclusive: 29.1 µM [activator, partial curve, poor fit]
47 | COc1ccc(-n2cnnc2SCC(=O)N(C)C2CCS(=O)(=O)C2)cc1 (stereo not given) | inactive: -1.53% | 
48 | COc1ccc2c(c1)OC[C@H]1[C@H]2N2C(=O)CNC(=O)[C@@]2(C)[C@H]1c1ccccc1 | inactive: -5.59% | 

Row | Compound | re-replication activation | Potency
49 | O=C(N/N=C/c1cccs1)c1cc(-c2cccc3ccccc23)n[nH]1 |  | inconclusive: 20.6 µM [activator, single point]
50 | COc1cccc(CCC2C(=O)CCCC2=O)c1 | inconclusive: 42.3% [activator] | 
51 | O=C(N/N=C/C(Br)=C/c1ccccc1)c1ccncc1 |  | inconclusive: 4.61 µM [activator, single point]
52 | CC(Sc1nnc(Cc2ccc([N+](=O)[O-])cc2)o1)C(N)=O (stereo not given) |  | inconclusive: 32.6 µM [activator, single point]
53 | CCOc1ccc(/C=C2/Sc3ccc(C(=O)NCC4CCCO4)cc3N(C)C2=O)cc1OC (stereo not given) |  | inconclusive: 6.51 µM [activator, single point]
54 | COc1ccc(C2C(C#N)=C(N)Nc3onc(C(C)(C)C)c32)c(OC)c1 (stereo not given) |  | inconclusive: 17.8 µM [activator, single point]
55 | O=C(/C=N/O)Nc1ccc2sc3ccccc3c2c1 | inactive: -139% | 
56 | CCOC(=O)N1CCC(N(CCOC)C(=O)Nc2ccc(Cl)c(Cl)c2)CC1 | inactive: 15.3% | 
57 | CNC(=O)c1nn(-c2ccccc2)ccc1=O | inactive: -3.5% | 
58 | CC(C)Oc1ccc(S(=O)(=O)N2CCOCC2)cc1NC(=O)C1=NN(c2ccccc2)C(=O)CC1 | inactive: 11% | 
59 | CCOc1ccc(C2NC(=O)NC(C)=C2[N+](=O)[O-])cc1OC (stereo not given) |  | inconclusive: 1.16 µM [activator, full curve, poor fit]
60 | Cn1c(C(=O)OC(C(=O)NC(C)(C)C)c2cccnc2)cc2sccc21 (stereo not given) |  | inconclusive: 29.1 µM [activator, partial curve, poor fit]
61 | c1ccc2c(-c3c[nH]c4ccccc34)c3ccccc3nc2c1 |  | inconclusive: 29.1 µM [activator, single point]
62 | O=C(NC(=S)Nc1ccc(F)c([N+](=O)[O-])c1)c1ccccc1F |  | inconclusive: 16.4 µM [activator, single point]
63 | Cc1ccc(NCC(=O)Nc2c(C)n(C)n(-c3ccccc3)c2=O)cc1S(=O)(=O)N(C)C |  | inconclusive: 29.1 µM [activator, single point]
64 | Cc1ccc(C(=O)NC(Cc2cccc(C(F)(F)F)c2)C(=O)O)cc1 (stereo not given) |  | inconclusive: 14.6 µM [activator, single point]
65 | CSc1ccc(/C=C/C(=O)c2c(O)cc(C)oc2=O)cc1 |  | active: 18.4 µM
66 | Cc1cccc(-c2nc(-c3ccncc3)no2)c1 | inactive: 0.881% | 
67 | N#Cc1ccc(C23CC4(C2)[C@H](CN(P(=O)(c2ccccc2)c2ccccc2)[C@@H]4c2ccccc2)C3c2ccc(Cl)nc2)cc1 (stereo not given in full) | inactive: 3.8% | 
68 | CCN(CC(=O)Nc1ccc(N2CCOCC2)cc1)C(=O)c1ccc(C(F)(F)F)cc1 | inactive: 11.9% | 
69 | C#CCOCCOCCOCCNc1nc(N2CCN(C(=O)[C@H](CCCCN)n3cc([C@@H](N)[C@H](C)CC)nn3)CC2)nc(N2CCN(C(=O)[C@H](CCC(=O)O)n3cc([C@@H](N)CCCCN)nn3)CC2)n1 |  | inconclusive: 1.84 µM [activator, partial curve, poor fit]
70 | CN(C)CCCNc1ccc(-c2cc(Nc3cccc(Cl)c3)ncn2)cn1 |  | inconclusive: 25.9 µM [activator, single point]

Records 3 through 5 of the list above:
Row | Compound | re-replication activation | Potency
3 | O=C(CSc1ccc(-c2ccc3c(c2)OCO3)nn1)Nc1nccs1 | inactive: 0.784% | 
4 | CN(Cc1ccc(F)cc1)C(=O)c1ccc(NS(=O)(=O)c2ccccc2)cc1 | inactive: -0.373% | 
5 | Cc1ccc(NC(=O)CN(C)C(=O)c2cccnc2Nc2cccc(C(F)(F)F)c2)cc1 |  | inconclusive: 29.1 µM [activator, single point]

Source: PubChem BioAssay AID624297 (National Center for Advancing Translational Sciences (NCATS), 2012)
